Laboratory results: article PMC8468769

Sequences of proteins named here, by UniProt entry; tags and fusion partners are left off. A change or cut given only in a name is not applied to a line headed by its entry.
UniProt F7VN14: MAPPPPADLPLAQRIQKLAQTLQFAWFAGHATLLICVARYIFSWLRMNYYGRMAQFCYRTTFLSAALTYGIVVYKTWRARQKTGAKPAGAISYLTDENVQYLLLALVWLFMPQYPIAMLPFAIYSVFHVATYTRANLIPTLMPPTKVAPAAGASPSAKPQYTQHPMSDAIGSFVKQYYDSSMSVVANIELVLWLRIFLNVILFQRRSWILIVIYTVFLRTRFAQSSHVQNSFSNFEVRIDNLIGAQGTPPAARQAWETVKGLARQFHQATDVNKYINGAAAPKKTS

Target: SmPOM33-TagRFP-T (Sordaria macrospora) (UniProt F7VN14)
Assay: affinity purification with mass spectrometry; POM33-TagRFP-T precipitated from S. macrospora mycelium lysate (lysis buffer without NP-40) with anti-TagRFP-T antibody and Protein G Dynabeads, 4 °C; control free TagRFP-T strain; LC/MS with label-free quantification, FDR 0.01, S0 0.1; two experiments, seven samples

- binding: binds
B1: acyl-CoA desaturase 1 (SMAC_01733) (protein, UniProt F7VRP8 1-477)
chain: MASTSATDVPPEVQAVNVPDGTTDFIPLRGKKYDLKKPHITEMPITWGNWYKHVNWLNTTFIIFVPLAGLISAYWVTLQTKTLIFSIAYYYFAGLGITAGYHRLWAHTSYKATLPLKIWLAAGGAAAVEGSARWWSRDHRAHHRYTDTDKDPYSVRKGLLYSHIGWMVMKQNPKRIGRTDITDLNEDPVVVFQHKHYIKCVITMALIVPTLICGFGWGDFAGGFIYGGILRIFFIQQATFCVNSLAHWLGDQPFDDRNSPRDHVITALVTLGEGYHNFHHEFPSDFRNAIQWWQYDPTKWCIWAWKQLGLAYDLKKFPHNEIEKGRLQQQQKKLDQKRATLDWGIPLENLPVVSWDDFVQESKNGKAWIAVAGVIHDVGKFIKDHPGGKALINSAIGKDATAIFNGGVYNHSNAAHNLLSTMRVGVIRGGCEVEIWKRAQAENKDIATVTDSSGKKIVRAGLQPTRVTPPVTTADAA

- binding: binds
B2: fatty acid desaturase (SMAC_03650) (protein, UniProt F7VVS7 1-481)
chain: MASVSSALPIGNKPALRRTQTEATTDSYPATADASPFDSPLERSASNTSLSSLASDNVKVDKAEFGKLIDTYGNEFEVPDFTIKDIRDAIPKHCYERSALRSLSYVVRDMIYLAVTFYVWNKYVTPEYIPLKAARVVLWGLYTFMQGLFGTGLWVLAHECGHQAFSPSKLINDTVGWVLHSALLVPYFSWKFSHSKHHKATGNIERDMVFVPRTREQQASRIGRFAHELSELTEETPIYTLIHLLGQQLIGWPNYLMTNVTGHNNHEKQREGRGKGKVNGWFTGVNHFNPSSPLYDEREAPWIIVSDVGIAITATALVYLGNTFGWSNMFVWYFLPYLWVNHWLVAITYLQHTDPSLPHYTAEEWNFVRGAAATIDREFGFIGRHLLHGIIETHVLHHYVSTIPFYNADEASEAIKKVMGKHYRSDVQDGPIGFIKSMWKAARWCQWVEPTEGAEGKGKGVLFYRNQNNLGVKPAKLPKTN

Results are given in words; binding and its absence hold for the method and conditions named. In cells and extracts the contact can be indirect. A yes stands for co-enrichment or nearness to the bait. Other partners may have been found. Each block holds one binder with its values, some of them ahead of it.
